PubChem BioAssay AID1259308 – NCATS – 2017
Shown is an unselected part of about 59,000 deposited reagents. In the full data, about 1,510 (2.6%) were called active. 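Calls use total luciferase alone and ignore viability, so some active siRNAs may act by altering cell number.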 The numbers tell different reagents against one gene apart. Further read-outs or replicates are left out here.

Assay: 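Genes whose loss raises luciferase production in HEK293 cells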 (primary screen)
Cell system: human HEK293 embryonic kidney cells stably expressing firefly luciferase (HEK-CMV-Luc2-Hygro)
Reagent: single siRNA against human genes, 0.8 pmol siRNA per well
Time to read-out: 72 h
Measurement: 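Luciferase light (ONE-Glo) measured on one replicate plate set and viability (CellTiter-Glo) on the other, scaled to a negative control siRNA, with robust z-scores and luciferase per cell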
Reading the numbers: total luciferase, z-score: higher = more reporter protein produced
Rule for the call: 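An siRNA counts as active if its total luciferase robust z-score exceeds 3; genes with two or more such siRNAs out of three were retested with fresh siRNAs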
Meaning of the calls: active = raised luciferase; inactive = no rise

no.	target gene	reagent no.	total luciferase, z-score	activity call
1	RGS21 (GeneID 431704)	1	0.149	inactive
2	RGS21 (GeneID 431704)	2	0.725	inactive
3	RGS21 (GeneID 431704)	3	2.6	inactive
4	SCN2B (GeneID 6327)	1	0.599	inactive
5	SCN2B (GeneID 6327)	2	-0.38	inactive
6	SCN2B (GeneID 6327)	3	0.993	inactive
7	TNFRSF10C (GeneID 8794)	1	-1.22	inactive
8	TNFRSF10C (GeneID 8794)	2	-0.182	inactive
9	TNFRSF10C (GeneID 8794)	3	-1.12	inactive
10	ARHGAP24 (GeneID 83478)	1	-0.28	inactive
11	ARHGAP24 (GeneID 83478)	2	-0.238	inactive
12	ARHGAP24 (GeneID 83478)	3	0.0239	inactive
13	GLG1 (GeneID 2734)	1	2.71	inactive
14	GLG1 (GeneID 2734)	2	0.904	inactive
15	GLG1 (GeneID 2734)	3	-1.51	inactive
16	ACSBG2 (GeneID 81616)	1	2.15	inactive
17	ACSBG2 (GeneID 81616)	2	1.24	inactive
18	ACSBG2 (GeneID 81616)	3	0.56	inactive

Continued (5 carried over from the part before).
no.	target gene	reagent no.	total luciferase, z-score	activity call
14	GLG1 (GeneID 2734)	2	0.904	inactive
15	GLG1 (GeneID 2734)	3	-1.51	inactive
16	ACSBG2 (GeneID 81616)	1	2.15	inactive
17	ACSBG2 (GeneID 81616)	2	1.24	inactive
18	ACSBG2 (GeneID 81616)	3	0.56	inactive
19	VRK2 (GeneID 7444)	1	-0.324	inactive
20	VRK2 (GeneID 7444)	2	0.214	inactive
21	VRK2 (GeneID 7444)	3	-0.79	inactive
22	HCN2 (GeneID 610)	1	1.32	inactive
23	HCN2 (GeneID 610)	2	-0.785	inactive
24	HCN2 (GeneID 610)	3	-0.683	inactive
25	F7 (GeneID 2155)	1	-0.76	inactive
26	F7 (GeneID 2155)	2	-0.547	inactive
27	F7 (GeneID 2155)	3	0.69	inactive
28	ATF7IP2 (GeneID 80063)	1	-0.139	inactive
29	ATF7IP2 (GeneID 80063)	2	2.56	inactive
30	ATF7IP2 (GeneID 80063)	3	2.29	inactive
31	AIMP1 (GeneID 9255)	1	0.189	inactive
32	AIMP1 (GeneID 9255)	2	-0.43	inactive
33	AIMP1 (GeneID 9255)	3	-0.689	inactive
34	SGK1 (GeneID 6446)	1	1.88	inactive
35	SGK1 (GeneID 6446)	2	-0.61	inactive
36	SGK1 (GeneID 6446)	3	-0.707	inactive
37	HCG27 (GeneID 253018)	1	0.226	inactive
38	HCG27 (GeneID 253018)	2	1.14	inactive
39	HCG27 (GeneID 253018)	3	0.649	inactive
